Some entries share one result that the patent states for a list of compounds.
How the values were obtained:
Nilaparvata lugens = assay: Test Example 1: spray on rice plants, Nilaparvata lugens larvae; type: in vivo; details: 500 ppm, sprayed 20 ml/cup on rice plants; thirty first-instar larvae released; sixth day after release
Aphis gossypii = assay: Test Example 2: spray on cucumber plant, Aphis gossypii; type: in vivo; details: 500 ppm, sprayed 20 ml/cup on cucumber plant with about twenty Aphis gossypii; sixth day after the treatment

SMILES | number of parasitic Nilaparvata lugens on the rice plants (Nilaparvata lugens) | number of parasitic insects (Aphis gossypii) (Aphis gossypii)
N#CC(C#N)(CCC(F)(F)F)Cn1ccc(C(F)(F)C(F)(F)F)n1 [compound of the present invention (36), {[3-(pentafluoroethyl)-1H-pyrazole-1-yl]methyl}(3,3,3-trifluoropropyl)malononitrile] | ≤ 3 | ≤ 3
N#CC(C#N)(CCC(F)(F)F)Cn1cc(Br)c(C(F)(F)C(F)(F)F)n1 [compound of the present invention (37), [(4-bromo-3-(pentafluoroethyl)-1H-pyrazole-1-yl)methyl](3,3,3-trifluoropropyl) malononitrile] | ≤ 3 | ≤ 3
N#CC(C#N)(CCC(F)(F)F)Cn1cnc(C(F)(F)F)c1 [compound of the present invention (38), {[4-(trifluoromethyl)-1H-imidazole-1-yl]methyl}(3,3,3-trifluoropropyl) malononitrile] | ≤ 3 | ≤ 3

— patent US7541374B2, “Malononitrile compounds and use thereof” (Sumitomo Chemical Company, Limited, priority 2004, dated 2009)
